pIC50: −log10 of the molar value. Read-outs that look alike come from different tables or passages of the source. At least one compound was matched to its structure with a doubt left.
Columns and labels:
STAT3 [1] = target: T1, STAT3 (Homo sapiens, UniProt P40763); assay: IL-6 induced STAT3 phosphorylation, Western blot / densitometry, dBT114 cells; assay type: cell-based; design: To characterize changes in protein levels in whole cell lysates; endogenous in cells; host or cells: dBT114 (human GBM stem cell line); conditions: IL-6, 10 μM, Western blot (FIG. 1)
Description: (§1) Compounds described herein can be tested for blocking the activation of phospho-STAT3 in vitro. […] The compounds were tested for inhibiting IL-6 induced phosphorylation of STAT3 in a human Glioblastoma GBM stem cell line (dBT114) and in the murine GBM cell line, GL261. IL-6 potently activates STAT3 phosphorylation in dBT114 cells but not as much in GL261 cells (FIG. 1), showing that GL261 cells have constitutively activated STAT3. […] A dose dependent decrease of IL-6 induced STAT3 phosphorylation in dBT114 cells using increasing concentrations of our compounds was observed, while no effect was seen on the levels of activated MAP kinase (FIG. 2).
(§2) Western Blot Analysis: Prior to analysis, cells were washed twice in cold phosphate buffered saline (PBS) and flash frozen in 200 μL of lysis buffer (50 mm/L NaCl, 50 mmol/L NaF, 50 mmol/L sodium pyrophosphate, 5 mmol/L EDTA, 5 mmol/L EGTA, 2 mmol/L Na3VO4, 1% Triton X-100, 0.5 mmol/L PMSF, […], 10 mmol/L HEPES, pH 7.4) in a ethanol/dry ice bath followed by scraping and a 5 second sonication to achieve a homogeneous solution. Sample protein concentrations were determined using the Bradford protein assay kit (Bio-Rad, Hercules, Calif.). […]

The chains behind the UniProt entries cited, without tags or fusion partners.
UniProt P40763, whole entry: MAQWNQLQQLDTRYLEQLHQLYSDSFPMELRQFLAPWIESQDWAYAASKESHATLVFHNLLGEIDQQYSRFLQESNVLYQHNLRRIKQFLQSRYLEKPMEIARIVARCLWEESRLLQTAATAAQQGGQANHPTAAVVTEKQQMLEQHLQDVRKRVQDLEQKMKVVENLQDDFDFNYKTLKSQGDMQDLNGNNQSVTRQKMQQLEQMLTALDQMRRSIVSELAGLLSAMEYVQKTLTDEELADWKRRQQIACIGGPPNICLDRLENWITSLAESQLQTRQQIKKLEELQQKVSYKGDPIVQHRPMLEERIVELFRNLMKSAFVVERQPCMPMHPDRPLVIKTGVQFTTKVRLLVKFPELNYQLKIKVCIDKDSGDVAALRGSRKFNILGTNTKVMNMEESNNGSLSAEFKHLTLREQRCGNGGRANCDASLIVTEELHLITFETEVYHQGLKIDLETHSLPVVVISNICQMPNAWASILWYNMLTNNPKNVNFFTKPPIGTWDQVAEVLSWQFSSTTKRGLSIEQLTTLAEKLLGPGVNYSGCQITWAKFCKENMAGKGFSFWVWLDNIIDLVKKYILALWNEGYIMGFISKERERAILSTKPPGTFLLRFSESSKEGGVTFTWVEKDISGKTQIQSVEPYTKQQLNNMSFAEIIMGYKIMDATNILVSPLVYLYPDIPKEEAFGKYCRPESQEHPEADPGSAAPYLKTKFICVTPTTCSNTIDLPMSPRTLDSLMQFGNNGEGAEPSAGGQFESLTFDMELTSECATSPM
UniProt P42227, whole entry: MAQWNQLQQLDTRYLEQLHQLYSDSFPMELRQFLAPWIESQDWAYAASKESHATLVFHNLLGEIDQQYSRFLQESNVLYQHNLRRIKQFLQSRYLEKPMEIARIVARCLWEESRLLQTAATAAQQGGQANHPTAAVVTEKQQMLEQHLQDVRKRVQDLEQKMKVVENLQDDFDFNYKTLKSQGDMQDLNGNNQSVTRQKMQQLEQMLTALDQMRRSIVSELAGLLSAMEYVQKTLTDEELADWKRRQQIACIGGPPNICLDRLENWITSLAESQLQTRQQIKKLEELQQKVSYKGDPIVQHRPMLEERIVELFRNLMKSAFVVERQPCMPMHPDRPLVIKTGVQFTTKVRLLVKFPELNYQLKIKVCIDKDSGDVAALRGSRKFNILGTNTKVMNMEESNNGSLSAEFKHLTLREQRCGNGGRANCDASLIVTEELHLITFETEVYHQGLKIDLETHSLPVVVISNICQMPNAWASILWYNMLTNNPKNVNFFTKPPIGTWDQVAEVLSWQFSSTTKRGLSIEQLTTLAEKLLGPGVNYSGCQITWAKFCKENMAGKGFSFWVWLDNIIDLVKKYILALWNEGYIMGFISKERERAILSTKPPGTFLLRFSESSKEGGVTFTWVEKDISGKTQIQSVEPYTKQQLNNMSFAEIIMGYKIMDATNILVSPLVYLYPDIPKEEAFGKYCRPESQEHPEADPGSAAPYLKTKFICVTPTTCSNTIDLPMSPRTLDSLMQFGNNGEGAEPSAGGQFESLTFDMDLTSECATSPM

STAT3 [2] = target: T1, STAT3; conditions: two cancer cell lines, literature (Li et al. 2011); cited from earlier work
STAT3 [3] = target: T2, STAT3 (Mus musculus, UniProt P42227); assay: STAT3 phosphorylation, Western blot, GL261 cells; assay type: cell-based, murine; conditions: GL261 cells (constitutively activated STAT3), 10 μM, Western blot (FIG. 1)
T2 construct: endogenous in cells; host or cells: GL261 (murine GBM cell line)
Description: as §1, §2

[4] = literature (Li et al. 2011); read-out: IC50 in a cell viability assay; cited from earlier work

## Cc1ccc(-c2cc(C(F)(F)F)nn2-c2ccc(S(N)(=O)=O)cc2)cc1 [celecoxib, reference compound]
STAT3 [1]
  inhibition of STAT3 phosphorylation: no effect
STAT3 [2]
  inhibition of STAT3 phosphorylation: inhibited
STAT3 [3]
  inhibition of STAT3 phosphorylation: no effect
[4]
  pIC50: 4.37

Reference: patent US10138208B2, “Pyrazole derivatives as inhibitors of STAT3” (Mayo Foundation for Medical Education and Research, priority 2012, dated 2018)
